Data published in PubChem BioAssay (NCATS).
Inconclusive means that the source gave no clear call. Such entries were picked first, then a sample of the others. A potency beside an inconclusive call is a rough fit, not a confirmed value. Activity calls are given as the source filed them. Calls come from the whole dose curve; as a rule, active = well fitted cell-killing curve with a large enough effect; inconclusive = small, poorly fitted or top-dose-only effect, or effect the other way; inactive = no such curve, though single readings can be large or run the other way.

Assay: Quantitative High-Throughput drug screen in 47 multiple myeloma cell lines against the NCATS MIPE library collection: OPM2_DSMZ cell viability assay (AID 1919872); note: nearly all actives have a fitted effect of over 30% in size
Conditions: OPM2 myeloma viability, CellTiter-Glo ATP luminescence, 48 h; series mostly up to 45.8 µM; viability (% of DMSO): at the top concentration
In short: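 CellTiter-Glo luminescence (ATP) after 48 h compound exposure, 37C/5% CO2; 500 cells/well; MIPE 4.0 approved/investigational drugs pinned in; DMSO = 100%, media only = 0% viability.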
Potency is the fitted concentration of half-maximal effect.

Row | Compound | Potency | viability (% of DMSO)
1 | C=CC(=O)Nc1cccc(Sc2nc(Nc3ccc(N4CCN(C)CC4)cc3)ncc2Cl)c1 | inconclusive: 33.2 µM [cytotoxic, single point] | 
2 | CCCCc1oc2ccccc2c1C(=O)c1cc(I)c(OCCN(CC)CC)c(I)c1 | inconclusive: 26.4 µM [cytotoxic, single point] | 
3 | CCCCCCCCOc1ccccc1C(=O)Nc1ccc(C(=O)OCC[N+](C)(CC)CC)cc1 | inconclusive: 23.5 µM [cytotoxic, partial curve] | 
4 | Cc1c(NC(=O)c2ccc(C(C)(C)C)cc2)cccc1-c1cn(C)c(=O)c(Nc2ccc(C(=O)N3CCOCC3)cc2)n1 | inconclusive: 23.5 µM [cytotoxic, partial curve] | 
5 | CC(C)c1ccc2oc3nc(N)c(C(=O)O)cc3c(=O)c2c1 | inconclusive: 18.7 µM [cytotoxic, single point] | 
6 | CO[C@H]1C=CC=C(C)C(=O)NC2=CC(=O)C(NCCN(C)C)=C(C[C@@H](C)C[C@H](OC)[C@@H](O)[C@@H](C)C=C(C)[C@@H]1OC(N)=O)C2=O | active: 0.0743 µM | 
7 | CN(C)c1ccc2nc3ccc(=[N+](C)C)cc-3sc2c1 | inconclusive: 11.8 µM [cytotoxic, partial curve] | 
8 | NC1CCC(Nc2nc(Nc3ccc(C(=O)N4CCCCC4)cc3)c3ncn(-c4cccc(F)c4)c3n2)CC1 (centres undefined) |  | inactive: 99.9%
9 | O=C(NOCC1CC1)c1ccc(F)c(F)c1Nc1ccc(I)cc1Cl | inconclusive: 23.5 µM [cytotoxic, partial curve] | 
10 | CC(C)(C)Cn1c(N)nc2ccc(-c3[nH]c(C(C)(C)C)nc3-c3ccc(F)cc3)nc21 | inconclusive: 23.5 µM [cytotoxic, partial curve] | 
11 | Cc1ccc(F)c(NC(=O)Nc2ccc(-c3cccc4[nH]nc(N)c34)cc2)c1 | inconclusive: 29.6 µM [cytotoxic, single point] | 
12 | CC(C)C[C@@H](C(=O)N[C@H](C(=O)OC1CCCC1)c1ccccc1)[C@H](O)C(=O)NO | inconclusive: 20.9 µM [cytotoxic, partial curve] | 
13 | O=C(NCC1CCCCN1)c1cc(OCC(F)(F)F)ccc1OCC(F)(F)F (centres undefined) | inconclusive: 23.5 µM [cytotoxic, single point] | 
14 | Nc1nccc(Oc2ccc(NC(=O)c3c[nH]cc(-c4ccc(F)cc4)c3=O)cc2F)c1Cl | inconclusive: 26.4 µM [cytotoxic, single point] | 

Assay: Quantitative High-Throughput drug screen in 47 multiple myeloma cell lines against the NCATS MIPE library collection: KMS11_JCRBsus cell viability assay (AID 1919873); note: nearly all actives have a fitted effect of over 50% in size
Conditions: KMS11 myeloma viability, CellTiter-Glo ATP luminescence, 48 h; viability (% of control): at 45.8 µM (top of the series)
In short: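 ATP-based CellTiter-Glo luminescence after 48 h drug exposure (37 °C, 5% CO2) of 500 myeloma cells per well. DMSO-only wells set 100% viability, media-only wells 0%; MIPE 4.0 library added by pin tool.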

Row | Compound | viability (% of control) | Potency
15 | O=C(O)c1cccc(-c2noc(-c3ccccc3F)n2)c1 | inactive: 78.9% | 
16 | C=CC(=O)Nc1cccc(Sc2nc(Nc3ccc(N4CCN(C)CC4)cc3)ncc2Cl)c1 |  | inconclusive: 1.66 µM [cytotoxic, full curve, poor fit]
17 | CCCCc1oc2ccccc2c1C(=O)c1cc(I)c(OCCN(CC)CC)c(I)c1 |  | inconclusive: 37.2 µM [cytotoxic, single point]
18 | Cc1nc(NC(=O)N2CCC[C@@H]2C(N)=O)sc1-c1ccnc(C(C)(C)C(F)(F)F)c1 |  | active: 0.166 µM
19 | Cc1cc(C(C)(C)C)c(O)c(C)c1CC1=NCCN1 | inactive: 91% | 
20 | O=C1NC(=O)C(c2ccccc2[N+](=O)[O-])=C1Nc1ccc(O)c(Cl)c1 |  | inconclusive: 37.2 µM [cytotoxic, single point]
21 | Cc1c(NC(=O)c2ccc(C(C)(C)C)cc2)cccc1-c1cn(C)c(=O)c(Nc2ccc(C(=O)N3CCOCC3)cc2)n1 |  | inconclusive: 18.7 µM [cytotoxic, partial curve]
22 | Cc1oncc1C(=O)Nc1ccc(C(F)(F)F)cc1 |  | inconclusive: 0.0372 µM [cytotoxic, full curve, poor fit]
23 | COc1cc2c(cc1OC)CN(CCc1ccc(NC(=O)c3cc(OC)c(OC)cc3NC(=O)c3cnc4ccccc4c3)cc1)CC2 |  | inconclusive: 23.5 µM [cytotoxic, partial curve]
24 | CC(C)c1ccc2oc3nc(N)c(C(=O)O)cc3c(=O)c2c1 | inactive: 103% | 
25 | C[N+]1(C)[C@@H]2C[C@@H](OC(=O)C(O)(c3cccs3)c3cccs3)C[C@H]1[C@@H]1O[C@@H]12 | inactive: 95.5% | 
26 | CC(=Cc1ccccc1)C=C1SC(=S)N(CC(=O)O)C1=O | inactive: 102% | 
27 | NC1CCC(Nc2nc(Nc3ccc(C(=O)N4CCCCC4)cc3)c3ncn(-c4cccc(F)c4)c3n2)CC1 (centres undefined) | inactive: 96.5% | 
28 | Cc1ccc(F)c(NC(=O)Nc2ccc(-c3cccc4[nH]nc(N)c34)cc2)c1 |  | active: 5.26 µM
29 | COc1ccc(-c2oc3cc(OC)ccc3c2C(=O)c2ccc(C#N)cc2)cc1 | inactive: 71.5% | 
30 | Cc1ccc(C(=O)Nc2cccc(C(F)(F)F)c2)cc1Nc1nc(-c2cccnc2)nc2c1cnn2C |  | inconclusive: 0.743 µM [cytotoxic, full curve, poor fit]
31 | O=C1CCCC2=C1C(c1[nH]ncc1Cl)N=C(Nc1nc3ccccc3o1)N2 (centres undefined) |  | inconclusive: 20.9 µM [cytotoxic, partial curve]
32 | CON=C(C(=O)N[C@@H]1C(=O)N2C(C(=O)OCOC(=O)C(C)(C)C)=C(C=Cc3scnc3C)CS[C@H]12)c1csc(N)n1 | inactive: 102% | 
33 | CC(O)=C(C#N)C(=O)Nc1ccc(C(F)(F)F)cc1 |  | inconclusive: 26.4 µM [cytotoxic, single point]
34 | Nc1nccc(Oc2ccc(NC(=O)c3c[nH]cc(-c4ccc(F)cc4)c3=O)cc2F)c1Cl |  | inconclusive: 20.9 µM [cytotoxic, partial curve, poor fit]

Ordered by molar mass (low to high): part of the list above
Row | Compound | viability (% of control) | Potency
20 | O=C1NC(=O)C(c2ccccc2[N+](=O)[O-])=C1Nc1ccc(O)c(Cl)c1 |  | inconclusive: 37.2 µM [cytotoxic, single point]
28 | Cc1ccc(F)c(NC(=O)Nc2ccc(-c3cccc4[nH]nc(N)c34)cc2)c1 |  | active: 5.26 µM
16 | C=CC(=O)Nc1cccc(Sc2nc(Nc3ccc(N4CCN(C)CC4)cc3)ncc2Cl)c1 |  | inconclusive: 1.66 µM [cytotoxic, full curve, poor fit]
